## Results of single-concentration screens

Measurements from “University of Dundee, Small-Polar-MMV Screening Library” (2021), ChEMBL document CHEMBL3988442.

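Whole-cell growth test on Mycobacterium tuberculosis, read after 3 days in glucose-containing 7H9 medium; the read-out is not stated. Compounds at 500 µM. Direction is inferred from retests: higher values go with more growth inhibition. Of about 18,000 compounds tested this way, about 1,400 (7.9%) reached 50% or more in at least one test.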

Values are the deposited “Percent Effect”, in %.
The record does not define 0% and 100%; most values in the screen are far below 50% and negative numbers occur (in some assays of this library far below -100).
Compounds were drawn at random from those tested, without regard to their results.

| Compound | Percent Effect |
|---|---|
| `CC(C)CC(=O)N1CCC(OCc2ccccn2)C1` (stereo unspecified) | 14.9 |
| `c1ccc(-c2noc(CN3CCCC3)n2)cc1` | 72.52 |
| `CCn1c(CN2CCC(F)CC2)nnc1[C@H]1C[C@@H](N)C1` | -0.7933 |
| `CSc1ncccc1C(=O)Nc1ccc(C)cn1` | -10.55 |
| `CCC(C#N)NC(=O)c1cnc(OC(C)C)c(Cl)c1` (stereo unspecified) | 78.4 |
| `N#CCS(=O)(=O)NCc1ccc(F)cc1` | 18.6 |
| `CC1CCCCN1Cc1nc(-c2ccccn2)no1` (stereo unspecified) | 20.86 |
| `Cc1nn(CCO)c(C)c1CNCC1(O)CCCCC1` | -6.498 |
| `N[C@@H]1C[C@H]1c1ccc(F)c(F)c1` | 44.54 |
| `CCN(CCO)Cc1cc(=O)n2ccsc2n1` | -10.89 |
| `Cc1c[nH]c(C(=O)N2CC[C@@](O)(C3CCC3)[C@H](C)C2)n1` | 25.43 |
| `Nc1nc(C2CC(O)C2)cc(N2CC(O)C2)n1` (stereo unspecified) | 10.06 |
| `COCCN1CCCN(C(=O)c2cc(Cl)c[nH]2)CC1` | 63.83 |
| `CCNC(=O)c1cc(N2CCC(O)CC2)ccn1` | 14.96 |
| `CC(=O)NCC1CCN(Cc2ccccc2)C1` (stereo unspecified) | 21.87 |
| `O=S(=O)(c1cccs1)N(CCO)Cc1cccnc1` | 11.01 |
| `COc1ncccc1NC(=O)NCc1csc(C)n1` | 19.81 |
| `CCC1(CO)CCCN(CCCC(N)=O)C1` (stereo unspecified) | 4.111 |
| `CN(C)[C@@H]1CN(C(=O)c2ccccc2Cl)C[C@H]1CO` | -7.548 |
| `CCS(=O)(=O)N1CCC(C(=O)NCCN(C)C)CC1` | 9.34 |
| `CCCN1CCC(NC(=O)NCC(O)C2CC2)CC1` (stereo unspecified) | -5.475 |
| `CC(CO)(CO)NC(=O)c1ccc(-c2ccccc2)o1` | 3.224 |
| `COc1ccc(C(=O)Nc2cc(Br)c(=O)n(C)c2)cc1` | -3.239 |
| `COCCN1CCN(S(=O)(=O)c2ccn(C)c2)CC1` | -3.892 |
| `COc1ccc(NC(=O)N2CCC[C@@H]2CO)cc1` | 15.72 |
| `COc1ccccc1CN1CCC(N)CC1` | 62.09 |
| `O=C(Nc1cc(Cl)c(Cl)cn1)C1COCCO1` (stereo unspecified) | 2.381 |
| `O=C(NCC1CC1)C1CC12CCNCC2` (stereo unspecified) | -3.334 |
| `CC(=O)c1ccc(OCC(O)Cn2ccnc2)cc1` (stereo unspecified) | 0.2711 |
| `NCc1nc(-c2ccccn2)no1` | -0.03095 |
| `CC(=O)N1N=C(c2cccnc2)CC1c1ccco1` (stereo unspecified) | 8.565 |
| `Cn1cncc1CCNC(=O)CCc1ccoc1` | -10.08 |
| `CCn1nnc(NCc2ccccc2)n1` | 74.66 |
| `CC1COc2ccccc2N1C(=O)c1cnsn1` (stereo unspecified) | -28.11 |
| `NS(=O)(=O)N1CCC(NC(=O)CC2CCCCC2)CC1` | 5.888 |
| `CCCC(=O)NCc1nnc(C2CCC2)n1C` | -7.919 |
| `Cc1cccnc1CNc1ncnc2nc[nH]c12` | -3.808 |
| `CC(C)=CCNC(=O)NCC(C)(C)N1CCOCC1` | 11.72 |
| `Cn1cc(NC(=O)CCc2ccco2)cc(Br)c1=O` | -1.944 |
| `O=C(Cn1cc(C(F)(F)F)ccc1=O)N1CCCC1` | -3.914 |
| `c1cn2c(n1)COCC2` | -8.133 |
| `Nc1cnccc1CO` | -2.429 |
| `COc1c(CNCCS(C)(=O)=O)c(C)nn1C` | -0.2591 |
| `CCCn1ccnc1CNC(=O)c1nc(C)c[nH]1` | 3.071 |
| `CCN(C(=O)CN1CCNC(=O)C1)c1ccc(F)cc1` | 19.81 |
| `CSc1ccccc1NC(=O)CCN1CCOCC1` | -5.64 |
| `O=C(NCCCc1ccccc1)C1CNCCO1` (stereo unspecified) | 11.37 |
| `CCN(C1CC1)S(=O)(=O)c1ccc(OC)c(C(N)=O)c1` | -3.753 |
| `NC(=O)C1(N)CCOCC1` | -3.953 |
| `CC(C)(C)OC(=O)N1CCN(C2CCC(N)CC2)CC1` (stereo unspecified) | 46.01 |
| `Cc1ccc2nc(COC(=O)C3CCC3)cc(=O)n2c1` | -14.85 |
| `Cc1cscc1C(=O)NCCc1cncn1C` | -0.4922 |
| `Cc1c(C(=O)NCC2CC2)cnn1C` | 44.6 |
| `CSCCC(O)C(=O)N(C)CCc1ccncc1` (stereo unspecified) | 7.186 |
| `Cc1ccn(CCCOC(C)C)c(=O)c1C#N` | 14.62 |
| `CCN1CCN(Cc2nc(-c3ccccc3)no2)CC1` | 53.3 |
| `CCOc1ccccc1OCC1CNCCO1` (stereo unspecified) | 35.1 |
| `CCS(=O)(=O)NCCNC(=O)c1ccc(C)nc1` | 23.97 |
| `COCCNC(C)C(N)=O` (stereo unspecified) | -9.757 |
| `CO[C@H]1CN(C(C)C)C[C@@H]1NC(=O)c1ccoc1` | 4.546 |
| `CCN(C)C(=O)Nc1cnns1` | 2.036 |
| `CC(Cn1cccn1)NC(=O)Cn1cc(Br)ccc1=O` (stereo unspecified) | 5.152 |
| `CC(=O)Nc1ccc(N2CCCCC2)nc1` | 51.17 |
| `CC(=O)c1cccc(OCC(=O)Nc2cc(C)on2)c1` | -10.33 |
| `Cc1ccc(C(CN)N2CCOCC2)s1` (stereo unspecified) | 25.22 |
| `N#Cc1ccsc1C(=O)N1CCN(CCO)CC1` | -4.463 |
| `CNC(=O)c1cccc(NCc2c(C)noc2C)c1` | 11.88 |
| `CC(C#N)Sc1nnnn1Cc1cccs1` (stereo unspecified) | 35.33 |
| `Cc1ccc(N2C=NS(=O)(=O)c3cccnc32)cc1C` | -6.813 |
| `CNCc1cccc(-n2cccn2)c1` | -9.474 |
| `CC[C@H](C)[C@H](N)C(=O)NCCc1noc(C(C)C)n1` | 10.18 |
| `CC(N)c1ccc(N2CCNC2=O)cc1` (stereo unspecified) | 39.22 |
| `CCc1cc(N2CCN(CCO)CC2)n2nccc2n1` | -0.1693 |
| `O=C(c1csc(Br)c1)N1CCOCC1` | 21.77 |
| `COCN1C(=O)c2ccc(F)cc2S1(=O)=O` | -6.327 |
| `Cn1cc(NC(=O)C2=Cc3ccccc3OC2)cn1` | 57.23 |
| `Cc1ccc2oc(N3CCNCC3)nc2c1` | 63.68 |
| `CC(C)(C)NC(=O)CNC1CCCc2occc21` (stereo unspecified) | 31.92 |
| `CC1(O)CCN(C(=O)NC(C)(C)C)C1` (stereo unspecified) | 6.286 |
| `CCN(CC)C(=O)c1cc(C)oc1C` | -6.846 |
| `COCC(C)NC(=O)c1ccc(OC)c(F)c1` (stereo unspecified) | 38.27 |
| `Clc1cnc(NCCNCc2cc[nH]n2)c(Cl)c1` | 65.78 |
| `Cc1ocnc1CNC(=O)c1ccon1` | -12.41 |
| `CC(C)(C)OC(=O)NCCC(=O)NC1CCOC1` (stereo unspecified) | -8.856 |

Some entries from above, unchanged:

Result for Cc1ccn(CCCOC(C)C)c(=O)c1C#N was 14.62%.
Result for CCS(=O)(=O)N1CCC(C(=O)NCCN(C)C)CC1 was 9.34%.
Result for CNCc1cccc(-n2cccn2)c1 was -9.474%.
Result for CCC1(CO)CCCN(CCCC(N)=O)C1 (stereo unspecified) was 4.111%.
Result for CC(N)c1ccc(N2CCNC2=O)cc1 (stereo unspecified) was 39.22%.
Result for CC(C)CC(=O)N1CCC(OCc2ccccn2)C1 (stereo unspecified) was 14.9%.
Result for Cc1ocnc1CNC(=O)c1ccon1 was -12.41%.
Result for CNC(=O)c1cccc(NCc2c(C)noc2C)c1 was 11.88%.
Result for Cc1cccnc1CNc1ncnc2nc[nH]c12 was -3.808%.
Result for c1cn2c(n1)COCC2 was -8.133%.